Measured values published in patent US5200397A, “Use of peptide analogs of thrombospondin for the inhibition of angiogenic activity” (W. R. Grace & Co.-Conn., priority 1991, dated 1993).
Not every detail of the peptide structures is certain; ends, links or a residue may be inferred. Residues, ends and D or L forms follow the SMILES beside them. *: point of attachment. For = O=C*

Tests used:
[1] = system: Platelet-rich-plasma (PRP); assay: Platelet aggregation assay (ADP, platelet-rich plasma); type: cell-based; settings: 1 μM ADP
Protocol: Platelet aggregation was monitored on a single-channel aggregometer equipped to measure luminescence (Chromo-Log, Havertown, Pa.). Platelet-rich-plasma (PRP) was obtained from whole blood anti-coagulated with 0.38% Sodium Citrate by centrifugation at 150 X g for 20 minutes. Peptides were added to 0.5 ml of PRP and aggregation initiated with 1 μM ADP. Buffer blanks contained diluent (water) but no peptide.

[2] = system: chicken chorioallantoic membrane (CAM); assay: CAM assay (antiangiogenesis, Avascular Index); type: in vivo
Protocol: Assays for antiangiogenic properties on the chicken chorioallantoic membrane (CAM) were performed using the "egg culture" technique (Auerbach, Dev. Biol. (1974) 41:391 and Crum, Science (1985) 230:1375). The fertilized White Leghorn egg (Truslow Farms, Chestertown, Md.) used in this method was removed from the shell on day 3 (after fertilization) and placed in a culture dish. The "cultured egg" was maintained through day 6 at 37° C. in an atmosphere of 2% CO2 and a relative humidity of 70%. After day 6 incubation was carried out without supplemental CO2.
Test materials were implanted on the CAM using low gelling temperature agarose pellets (Castellot, J. Cell Physiol. (1986) 127:323). This assay was performed twice. In the first assay, the test materials included pellets containing 90, 9, and 0.9 μg of peptide p1 (SEQ ID No. 1) diluted in water. In the second assay, the test materials included pellets containing 100 μg peptide p1 diluted in water, 20, 50, 100, and 200 μg of peptide p1 diluted in phosphate buffered saline. A positive control which was a pellet containing 60 μg hydrocortisone and 50 μg heparin was used in both assays. The sample pellets were placed on day 6 CAMs. Eighteen to twenty-one pellets were implanted for each test sample. Only one sample per egg was employed due to the possible cumulative effects of sample toxicity to the embryo.
Antiangiogenesis was examined in an assay for inhibition of embryonic angiogenesis as described by Fenselau in "Growth and Maturation Factors" (1984) 2:175. After 1 or 2 days the samples were evaluated for their antiangiogenic effects on the CAM. Antiangiogenesis scores range from 0 (for no change in vessel growth around the implant), to 1 (for a reduction in capillary number around the implant), and to 2 (for the absence of all capillaries around the implant). These scores permit the calculation of an Avascular Index [AVI]: [formula]
The value of the AVI is used as a primary indicator of antiangiogenic activity. The correlation between the range of AVI values and activity are indicated below:
Inhibition of embryonic angiogenesis was also quantitated by measuring the size of the affected zone surrounding the pellet as well as the portion of the pellet that borders the affected region. The identity of the pellet contents was masked during the period of evaluation.

Q: For CC(C)[C@H](NC(=O)[C@H](CO)NC(=O)[C@H](CS)NC(=O)[C@@H]1CCCN1C(=O)[C@H](CO)NC(=O)[C@@H](N)Cc1cn(C=O)c2ccccc12)C(=O)N[C@H](C(=O)N[C@@H](CS)C(=O)NCC(N)=O)[C@@H](C)O [p5] (H-W(For)SPCSVTCG-NH2), which “inhibition of platelet aggregation (in words, FIG. 1)” value [1] is on record?
A: Its value is “inhibit platelet aggregation”.

Q: What does the source list for CC(C)[C@H](NC(=O)[C@H](CO)NC(=O)[C@H](CS)NC(=O)[C@@H]1CCCN1C(=O)[C@H](CO)NC(=O)[C@@H](N)Cc1c[nH]c2ccccc12)C(=O)N[C@H](C(=O)N[C@@H](CS)C(=O)NCC(=O)O)[C@@H](C)O [p1] (H-WSPCSVTCG-OH)?
A: inhibition of platelet aggregation (in words, FIG. 1) [1]: inhibit platelet aggregation; AVI Day 2 ([2]; Assay 1, 0.9 μg in H2O): 0.46; AVI Day 2 ([2]; Assay 1, 9 μg in H2O): 0.46; AVI Day 2 ([2]; Assay 1, 90 μg in H2O): 0.77; AVI Day 2 ([2]; Assay 2, 20 μg in PBS): 0.33; AVI Day 2 ([2]; Assay 2, 50 μg in PBS): 0.44; AVI Day 1 ([2]; Assay 2, 100 μg in H2O): 0.83; AVI Day 2 ([2]; Assay 2, 100 μg in H2O): 0.59; AVI Day 1 ([2]; Assay 2, 100 μg in PBS): 0.80; AVI Day 2 ([2]; Assay 2, 100 μg in PBS): 0.40; AVI Day 1 ([2]; Assay 2, 200 μg in PBS): 0.89; AVI Day 2 ([2]; Assay 2, 200 μg in PBS): 0.40; Level of Antiangiogenic Activity (in words) ([2]; overall, Table 6): weakly antiangiogenic
